Laboratory results as given in PubChem BioAssay AID1259415 (National Center for Advancing Translational Sciences (NCATS), 2018).
Several values for one entry are separate records, joined by “and”; a condition that tells them apart may be missing. Equal entries are not always repeated. The campaign covered roughly 410,000 compounds. About 18,000 (4.4%) were called active. Inconclusive results, whose numbers are uncertain, are shown with a selection of clear calls. No stated cut-off is given here; in the data, active means activity change below about -60%; inconclusive means no clear call, values can overlap the other calls; inactive means above about -39%.
On the % scale 0 is the no-effect control and ±100 the full control effect.

Test: qHTS Assay for inhibitors of the human cytomegalovirus (HCMV)
Conditions: HFF cells, HCMV-luciferase reporter, 72 h; at 57.5 µM; hits give low values
Summary of the method: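 Two compound doses tested in HFFs infected with HCMV-luciferase, MOI 1 PFU/cell, 72 h at 37C. Lysate luminescence read with OneGlo; data normalized against buffer-only and 10uM Salinomycin inhibitor controls.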
With COc1ccc2c(c1)C(n1c(C)ccc1C)C(=O)N2C (stereo unspecified) the activity change, negative = inhibition was inactive: -6.43%. With Cc1cccc(NCc2ccccc2OCc2ccccc2F)c1 the activity change, negative = inhibition was inconclusive: -48.7%. For Cc1ccc(C(=O)OCc2cc3ccccc3[nH]c2=O)cc1, the activity change, negative = inhibition was inactive: 9.22%. With CCc1ccc(-n2c(N3CCN(c4ccc(F)cc4)CC3)nc3ccccc3c2=O)cc1 the activity change, negative = inhibition was inconclusive: -50.9%. For O=C(c1cc([N+](=O)[O-])ccc1N1CCOCC1)N1CCN(S(=O)(=O)c2ccc(F)cc2)CC1, the activity change, negative = inhibition was inconclusive: -45.2%. With COc1ccc(NC(=O)CSc2nnc(C)c3ccccc23)cc1 the activity change, negative = inhibition was inconclusive: -40%. In the case of CC(=O)N1CCCc2cc(S(=O)(=O)Nc3ccc(Cl)cc3F)ccc21, the activity change, negative = inhibition was inactive: -24.4%. For CN1C(=O)C(C)(C)N(C(=O)c2cccc([N+](=O)[O-])c2)c2ccccc21, the activity change, negative = inhibition was inactive: -13.6%. In the case of CCOc1ccc(-c2cc(CCCC(=O)NCCCOC)no2)cc1, the activity change, negative = inhibition was inconclusive: -53.3%. With Cc1sc2nc(CSC(C)C(=O)Nc3ccc(Cl)cn3)[nH]c(=O)c2c1C (stereo unspecified) the activity change, negative = inhibition was inconclusive: -56.5%. With O=C(Nc1ccc2oc(-c3cccnc3)nc2c1)c1ccccc1F the activity change, negative = inhibition was inactive: 9.02%. In the case of COc1ccc(NS(=O)(=O)c2ccc(N3CCOCC3)c(NC(=O)C(C)C)c2)cc1, the activity change, negative = inhibition was inconclusive: -53.5%. In the case of CCOc1cccc(OCCNC2CCCC2)c1, the activity change, negative = inhibition was inconclusive: -43.6%. With O=C(COCc1cc(-c2ccco2)on1)Nc1cc(Cl)ccc1O the activity change, negative = inhibition was inactive: -28.7%. For O=C(Cc1cccs1)N[C@@H]1c2ccccc2CC[C@H]1OCc1ccccc1, the activity change, negative = inhibition was active: -99.3%. For C/C(=N\NC(=O)CN1CCN(S(=O)(=O)c2ccc(C)cc2)CC1)c1ccc(O)cc1, the activity change, negative = inhibition was inconclusive: -40.1%. For O=C(O)c1cccc(-c2nc3ccccc3[nH]2)c1, the activity change, negative = inhibition was inactive: 31.9%. With Clc1ccc(C2NCCc3sccc32)cc1 (stereo unspecified) the activity change, negative = inhibition was inconclusive: -52.7%. With CCCCCCCn1ccc(=N)cc1 the activity change, negative = inhibition was active: -91%. In the case of COc1ccc(C)cc1NC(=O)Cn1nc(N2CCN(c3ccccc3OC)CC2)ccc1=O, the activity change, negative = inhibition was inactive: 16%. In the case of O=[N+]([O-])c1cc(-c2csc(NC(CO)c3nc4ccccc4n3CCOCCO)n2)ccc1Cl (stereo unspecified), the activity change, negative = inhibition was inactive: 46.8%. For CC(C)(Cc1cc(CC(C)(C)C(=O)O)cc(C(C)(C)C)c1)C(=O)O, the activity change, negative = inhibition was inactive: 7.54%. With CCOC(=O)c1c(-c2cccc(C)c2)csc1NC(=O)c1c(-c2ccccc2)noc1C the activity change, negative = inhibition was active: -94%. With Cc1ccc(S(=O)(=O)N2CCC(C)CC2)cc1C(=O)NCc1ccccn1 the activity change, negative = inhibition was inconclusive: -43.1%. For COc1ccc(CN2CCC(C)(Oc3ccc(C(C)=O)cc3)C2)c2ccccc12 (stereo unspecified), the activity change, negative = inhibition was inactive: -5.89%. In the case of COCCNC(=S)N/N=C(\C)CCc1ccc2c(c1)OCO2, the activity change, negative = inhibition was active: -67.1%. In the case of CCCC1=Nc2cc(C(=O)NCc3ccccc3)ccc2Sc2ccccc21, the activity change, negative = inhibition was inconclusive: -56.5%. For COc1ccc(/C=C/C(=O)Nc2ccc(S(=O)(=O)Nc3cc(C)nc(C)n3)cc2)cc1OC, the activity change, negative = inhibition was inconclusive: -43.2%. With O=c1c2ccccc2nc(/C=C/c2ccc(O)cc2)n1-c1cccc(O)c1 the activity change, negative = inhibition was inconclusive: -58.1%. In the case of COc1ccc(C(C)=O)cc1CSc1nnc(Nc2ccccc2)s1, the activity change, negative = inhibition was active: -70%. In the case of COc1ccc(-n2cc(-c3ccccc3)[nH]c2=S)c(OC)c1, the activity change, negative = inhibition was active: -65.1%. In the case of CCOC(=O)C1CCN(C(=O)C2CCN(S(=O)(=O)c3c(C)noc3/C=C/c3ccc(C)cc3)CC2)CC1, the activity change, negative = inhibition was inactive: 4.32%. In the case of COc1cc(OC)cc(C(=O)Nc2ccc3c(c2)CCCN3C(=O)c2cccs2)c1, the activity change, negative = inhibition was active: -64.1% and active: -77.5%. For O=C1c2ccccc2NC2(CCCC2)N1N=C1CCCC1, the activity change, negative = inhibition was inconclusive: -48.2%. With COc1ccc(OC)c(C2CC(=O)N3CN(c4cccc(Cl)c4)CSC3=C2C#N)c1 (stereo unspecified) the activity change, negative = inhibition was inactive: 28.3%. With Cc1ccc(-n2ncc3c(Nc4ccc5c(c4)OCCO5)ncnc32)cc1Cl the activity change, negative = inhibition was inactive: -23.7%. With COc1ccc(/C=C/c2nc3ccccc3c(=O)n2-c2ccc(C)cc2)cc1O the activity change, negative = inhibition was inactive: -22.7%. In the case of Cc1nc2c(=O)n(C)c(=O)n(C)c2nc1Cl, the activity change, negative = inhibition was active: -103%. For O=C(NC1CC(=O)N(c2ccc(F)cc2)C1)c1ccc(S(=O)(=O)N2CCOCC2)cc1 (stereo unspecified), the activity change, negative = inhibition was inconclusive: -41.5%. For O=C(NCCc1ccccc1)c1ccc2nc3cc(Cl)ccc3c(=O)n2c1, the activity change, negative = inhibition was inconclusive: -47.7%. With O=C(Nc1ccc(F)cc1)Nc1ccc2ccccc2n1 the activity change, negative = inhibition was inconclusive: -56.5%. With O=C(NCCO)/C(=C/c1cccc([N+](=O)[O-])c1)NC(=O)c1ccco1 the activity change, negative = inhibition was inconclusive: -49.8%. In the case of CCCCNC(=O)CSc1nc2ccccc2n1S(=O)(=O)c1ccc(Cl)cc1, the activity change, negative = inhibition was inconclusive: -53%. In the case of O=S(=O)(c1ccc2ccccc2c1)N1CCC(c2nc(-c3ccncc3)no2)CC1, the activity change, negative = inhibition was active: -73.4%. In the case of COc1ccc(C(=O)Nc2nc(-c3ccc(Br)cc3)ns2)cc1, the activity change, negative = inhibition was inconclusive: -55.6%. With Fc1ccccc1-c1csc(=Nc2cccnc2)n1CC1CCCO1 (stereo unspecified) the activity change, negative = inhibition was inconclusive: -49.4%. With O=C(Nc1cccnc1)c1ccc(S(=O)(=O)c2ccc(Cl)cc2)cc1 the activity change, negative = inhibition was active: -86.1%. For CCOc1ccc(CCNC(=O)NCc2noc3ccc(C)cc23)cc1, the activity change, negative = inhibition was inactive: -5.28%. With CCNCC(=O)Nc1ccc(N2CCOCC2)cc1 the activity change, negative = inhibition was inconclusive: -42.4%. With O=[N+]([O-])c1ccccc1S(=O)NCc1c(Cl)cccc1Cl (stereo unspecified) the activity change, negative = inhibition was inconclusive: -42.9%. With COc1c(C)cc(C(=O)C2CCCN(C(=O)c3ccc4[nH]ccc4c3)C2)cc1C (stereo unspecified) the activity change, negative = inhibition was inconclusive: -58.2%. In the case of COc1cc(NC(=O)COC(=O)CNC(=O)c2ccc(Cl)cc2)c(C)cc1[N+](=O)[O-], the activity change, negative = inhibition was inconclusive: -49.8%. For CCc1cccc(CC)c1N1C(=O)C2=C(SCCCS2)C1=O, the activity change, negative = inhibition was inconclusive: -55%. With C/C(=N/NC(=O)c1cccc(N2CCCC2=O)c1)c1ccncc1 the activity change, negative = inhibition was inactive: 4.55%. For CCOc1ccc(C(=O)CCC(=O)O)cc1, the activity change, negative = inhibition was inactive: -11%. For CC/C(=C(\c1ccccc1)c1ccc(OCCN(C)C)cc1)c1ccccc1, the activity change, negative = inhibition was inconclusive: -59.9% and inconclusive: -55.8%.
